Experiment [1] has as its target PD-1 on Jurkat cells (PD-1+ CD47+ Jurkat cells; Jurkat stably expressing PD-1) (UniProt Q15116). Kind of experiment: flow cytometry on Jurkat cells, 4.5 nM, anti IgG-PE; ratio of the median fluorescence on PD-1+CD47+ cells over that on CD47+ cells. A general note: In flow cytometry, cells or beads pass a laser one at a time.
Experiment [2] has as its target recombinant hPD1 (Sino Biologicals, reference 10377-H08H) (human) (UniProt Q15116). The experiment is described as follows: ELISA on immobilised recombinant human PD-1, anti-human Fc peroxidase (FIG. 1A, humanized). Background: An ELISA detects its analyte on a solid surface through an enzyme-linked reagent.
Experiment [3] shares this target. Kind of experiment: ELISA, human recombinant PD-1 immobilised, detection with anti-human Fc-peroxidase, TMB.
Experiment [4] has the same target. Kind of experiment: ELISA on immobilised recombinant human PD-1, anti-human Fc peroxidase (FIG. 1B, humanized).

The chains behind the UniProt entries cited, without tags or fusion partners. Where a name states a change or a piece, a line headed by the entry shows the natural chain unless it says otherwise. Residues count along the entry.
UniProt Q15116: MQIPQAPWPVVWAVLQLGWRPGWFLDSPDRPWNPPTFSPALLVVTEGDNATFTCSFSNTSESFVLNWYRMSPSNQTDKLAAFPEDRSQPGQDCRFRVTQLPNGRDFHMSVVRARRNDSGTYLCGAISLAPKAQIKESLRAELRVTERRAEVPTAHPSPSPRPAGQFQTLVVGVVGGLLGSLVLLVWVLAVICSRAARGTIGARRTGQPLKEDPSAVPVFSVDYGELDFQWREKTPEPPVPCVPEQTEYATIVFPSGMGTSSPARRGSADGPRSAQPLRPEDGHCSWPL
PD-1 on Jurkat cells (PD-1+ CD47+ Jurkat cells; Jurkat stably expressing PD-1): residues 25-288 of Q15116
recombinant hPD1 (Sino Biologicals, reference 10377-H08H): residues 25-167 of Q15116
UniProt P78324: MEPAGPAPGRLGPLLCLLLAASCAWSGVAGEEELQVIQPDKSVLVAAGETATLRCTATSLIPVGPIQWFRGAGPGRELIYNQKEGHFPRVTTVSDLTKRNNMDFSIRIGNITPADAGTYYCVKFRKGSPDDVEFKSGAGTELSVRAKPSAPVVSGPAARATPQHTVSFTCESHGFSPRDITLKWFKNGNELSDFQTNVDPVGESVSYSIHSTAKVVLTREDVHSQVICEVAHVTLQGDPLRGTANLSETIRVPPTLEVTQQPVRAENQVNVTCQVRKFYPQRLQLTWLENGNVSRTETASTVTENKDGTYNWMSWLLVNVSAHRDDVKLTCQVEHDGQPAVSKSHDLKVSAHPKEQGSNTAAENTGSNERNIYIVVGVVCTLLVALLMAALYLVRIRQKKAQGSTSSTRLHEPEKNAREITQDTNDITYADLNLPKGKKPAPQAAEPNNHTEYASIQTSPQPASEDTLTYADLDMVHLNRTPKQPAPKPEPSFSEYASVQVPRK

No constants are given. Whether binding was seen depends on the method and setting. Some entries that bind do so weakly or less than the wild type.

Turning to “Bicki anti-PD1VH-SIRPa, humanized (VH SEQ ID NO: 24, VL SEQ ID NO: 28) (from UniProt P78324 31-373)”, the binding entry in experiment [1] is “binds”.
Consider “anti-PD1VH-SIRPa antibody, humanized (VH SEQ ID NO: 18, VL SEQ ID NO: 28), SIRPa fused to the heavy chain (from UniProt P78324 31-373)”, for which the binding result in experiment [2] and in experiment [3] was “binds” throughout.
For “anti-PD1VL-SIRPa antibody, humanized (VH SEQ ID NO: 18, VL SEQ ID NO: 28), SIRPa fused to the light chain (from UniProt P78324 31-373)”, the binding entry in experiment [3] and in experiment [4] was “binds” throughout.

(Values after patent US20220056135A1.)
